Results on six molecules are retold here after publication PMC5640428.

The target of the assay is T1, native KCC2 (K+-Cl- cotransporter KCC2) (mouse (endogenous in brain)) (UniProt Q91V14).
T1 sequence: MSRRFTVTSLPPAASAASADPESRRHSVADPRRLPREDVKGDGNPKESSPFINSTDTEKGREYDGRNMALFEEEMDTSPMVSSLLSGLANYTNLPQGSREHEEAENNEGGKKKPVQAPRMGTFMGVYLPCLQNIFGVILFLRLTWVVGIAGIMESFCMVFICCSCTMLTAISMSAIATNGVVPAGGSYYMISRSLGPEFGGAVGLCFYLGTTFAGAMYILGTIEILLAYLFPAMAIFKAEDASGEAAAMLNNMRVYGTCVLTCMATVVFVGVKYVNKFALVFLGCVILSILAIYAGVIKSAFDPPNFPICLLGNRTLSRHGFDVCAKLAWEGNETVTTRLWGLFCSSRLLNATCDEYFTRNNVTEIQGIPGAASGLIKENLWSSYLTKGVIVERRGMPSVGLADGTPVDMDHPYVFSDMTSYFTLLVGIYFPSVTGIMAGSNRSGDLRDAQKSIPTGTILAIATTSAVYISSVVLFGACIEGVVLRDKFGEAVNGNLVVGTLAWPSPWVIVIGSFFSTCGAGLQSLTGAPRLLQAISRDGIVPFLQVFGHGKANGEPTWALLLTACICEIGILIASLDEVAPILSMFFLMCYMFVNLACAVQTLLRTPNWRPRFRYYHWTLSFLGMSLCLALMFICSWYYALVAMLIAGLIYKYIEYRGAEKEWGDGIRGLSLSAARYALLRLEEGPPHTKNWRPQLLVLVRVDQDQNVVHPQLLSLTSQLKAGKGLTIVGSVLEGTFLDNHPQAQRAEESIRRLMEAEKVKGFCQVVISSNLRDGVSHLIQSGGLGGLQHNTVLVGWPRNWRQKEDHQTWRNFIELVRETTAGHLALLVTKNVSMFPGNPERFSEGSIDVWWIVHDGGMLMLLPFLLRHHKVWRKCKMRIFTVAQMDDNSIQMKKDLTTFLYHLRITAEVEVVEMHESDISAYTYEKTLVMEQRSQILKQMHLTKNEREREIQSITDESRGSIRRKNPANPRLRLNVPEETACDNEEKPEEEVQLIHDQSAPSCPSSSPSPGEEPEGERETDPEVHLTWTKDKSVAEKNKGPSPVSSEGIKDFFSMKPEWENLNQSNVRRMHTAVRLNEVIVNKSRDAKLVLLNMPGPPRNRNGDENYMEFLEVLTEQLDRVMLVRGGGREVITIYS
The experiment in a line: affinity purification with mass spectrometry; anti-KCC2 antibodies (C-terminal, N-terminal KCC2b, pS940) cross-linked with DMP to GammaBind IgG beads; C12E9-solubilised whole-brain membrane fractions of P5 and P50 mice; 4 hr, 4°C; parallel IgG/IgY controls.

Results are given in words; binding and its absence hold for the method and conditions named. Binding seen in cells or lysates may run through a third protein. A yes stands for co-enrichment or nearness to the bait. Other partners may have been found.

B1: ACO2 (protein, UniProt Q99KI0 28-780)
chain: QRAKVAMSHFEPSEYIRYDLLEKNINIVRKRLNRPLTLSEKIVYGHLDDPANQEIERGKTYLRLRPDRVAMQDATAQMAMLQFISSGLPKVAVPSTIHCDHLIEAQVGGEKDLRRAKDINQEVYNFLATAGAKYGVGFWRPGSGIIHQIILENYAYPGVLLIGTDSHTPNGGGLGGICIGVGGADAVDVMAGIPWELKCPKVIGVKLTGSLSGWTSPKDVILKVAGILTVKGGTGAIVEYHGPGVDSISCTGMATICNMGAEIGATTSVFPYNHRMKKYLSKTGRTDIANLAEEFKDHLVPDPGCQYDQVIEINLNELKPHINGPFTPDLAHPVADVGTVAEKEGWPLDIRVGLIGSCTNSSYEDMGRSAAVAKQALAHGLKCKSQFTITPGSEQIRATIERDGYAQILRDVGGIVLANACGPCIGQWDRKDIKKGEKNTIVTSYNRNFTGRNDANPETHAFVTSPEIVTALAIAGTLKFNPETDFLTGKDGKKFKLEAPDADELPRSDFDPGQDTYQHPPKDSSGQRVDVSPTSQRLQLLEPFDKWDGKDLEDLQILIKVKGKCTTDHISAAGPWLKFRGHLDNISNNLLIGAINIENGKANSVRNAVTQEFGPVPDTARYYKKHGIRWVVIGDENYGEGSSREHAALEPRHLGGRAIITKSFARIHETNLKKQGLLPLTFADPSDYNKIHPVDKLTIQGLKDFAPGKPLKCVIKHPNGTQETILLNHTFNETQIEWFRAGSALNRMKELQQ
As for B1, the binding result was “binds”.

B2: CPSF6 (protein, UniProt Q6NVF9 1-551)
chain: MADGVDHIDIYADVGEEFNQEAEYGGHDQIDLYDDVISPSANNGDAPEDRDYMDTLPPTVGDDVGKGAAPNVVYTYTGKRIALYIGNLTWWTTDEDLTEAVHSLGVNDILEIKFFENRANGQSKGFALVGVGSEASSKKLMDLLPKRELHGQSPVVTPCNKQFLSQFEMQSRKTTQSGQMSGEGKAGPPGGGSRAAFPQGGRGRGRFPGAVPGGDRFPGPAGPGGPPPPFPAGQTPPRPPLGPPGPPGPPGPPPPGQVLPPPLAGPPNRGDRPPPPVLFPGQPFGQPPLGPLPPGPPPPVPGYGPPPGPPPPQQGPPPPPGPFPPRPPGPLGPPLTLAPPPHLPGPPPGAPPPAPHVNPAFFPPPTNSGMPTSDSRGPPPTDPYGRPPPYDRGDYGPPGREMDTARTPLSEAEFEEIMNRNRAISSSAISRAVSDASAGDYGSAIETLVTAISLIKQSKVSADDRCKVLISSLQDCLHGIESKSYGSGSRRERSRERDHSRSREKSRRHKSRSRDRHDDYYRERSRERERHRDRDRDRDRERDREREYRHR
As for B2, the binding entry was “binds”.

B3: SLC4A10 (protein, UniProt Q5DTL9 1-1118)
chain: MEIKDQGAQMEPLLPTRNDEEAVVDRGGTRSILKTHFEKEDLEGHRTLFIGVHVPLGGRKSHRRHRHRGHKHRKRDRERDSGLEDGRESPSFDTPSQRVQFILGTEDDDEEHLPHDLFTELDEICWREGEDAEWRETARWLKFEEDVEDGGERWSKPYVATLSLHSLFELRSCILNGTVLLDMHANTIEEIADMVLDQQVSSGQLNEDVRHRVHEALMKQHHHQNQKKLANRIPIVRSFADIGKKQSEPNSMDKNAGQVVSPQSAPACAENKNDVSRENSTVDFSKGLGGQQKGHTSPCGMKQRLDKGPPHQQEREVDLHFMKKIPPGAEASNILVGELEFLDRTVVAFVRLSPAVLLQGLAEVPIPSRFLFILLGPLGKGQQYHEIGRSIATLMTDEVFHDVAYKAKDRNDLVSGIDEFLDQVTVLPPGEWDPSIRIEPPKNVPSQEKRKIPAVPNGTAAHGEAEPHGGHSGPELQRTGRIFGGLILDIKRKAPFFWSDFRDAFSLQCLASFLFLYCACMSPVITFGGLLGEATEGRISAIESLFGASMTGIAYSLFGGQPLTILGSTGPVLVFEKILFKFCKEYGLSYLSLRASIGLWTATLCIILVATDASSLVCYITRFTEEAFASLICIIFIYEALEKLFELSETYPINMHNDLELLTQYSCNCMEPHSPSNDTLKEWRESNLSASDIIWGNLTVSECRSLHGEYVGRACGHGHPYVPDVLFWSVILFFSTVTMSATLKQFKTSRYFPTKVRSIVSDFAVFLTILCMVLIDYAIGIPSPKLQVPSVFKPTRDDRGWFVTPLGPNPWWTIIAAIIPALLCTILIFMDQQITAVIINRKEHKLKKGCGYHLDLLMVAVMLGVCSIMGLPWFVAATVLSITHVNSLKLESECSAPGEQPKFLGIREQRVTGLMIFILMGSSVFMTSILKFIPMPVLYGVFLYMGASSLKGIQLFDRIKLFWMPAKHQPDFIYLRHVPLRKVHLFTVIQMSCLGLLWIIKVSRAAIVFPMMVLALVFVRKLMDFLFTKRELSWLDDLMPESKKKKLEDAEKEEEQSMLAMEDEGTVQLPLEGHYRDDPSVINISDEMSKTAMWGNLLVTADNSKEKESRFPSKSSPS
On to B3, for which the binding entry was “binds”.

B4: PITPNM2 (protein, UniProt Q6ZPQ6 1-1335)
chain: MIIKEYRIPLPMTVDEYRIAQLYMIQKKSRNETHGQGSGVEILENRPYTDGPGGSGQYTHKVYHVGMHIPGWFRSILPKAALRVVEESWNAYPYTRTRFTCPFVEKFSIDIETFYKTDTGENNNVFNLSPVEKSQLITDIIDIVKDPVPPSEYKTEEDPKLFQSVKTCRGPLSENWIQEYKKRLLPIMCAYKLCKVEFRYWGMQSKIERFIHDTGLRRVMVRAHRQAWCWQDEWYGLTMEKIRELEREVQLMLSRKMAQFSEEGPSELSKDSATKDQASGTTSDPGSKNGEPLGRGLKKQWSTSSKSSRSSKRGASPSRHSISEWRMQSIARDSDEGSEEEFFDAHENLYCTEEKQAKDMTKWNSNDLMDKMESPEPEESQDEIYQQSGSEFRVASSVEQLNIIEDEVSQPLAAPPSKIHVLLLVLHGGTILDTGAGDPSSKQGDTNTITNVFDTVMRVHYPSALGHLAIRLVPCPPICADAFALVSNLSPYGHDEGCLSSSQDHIPLAALPLLATSSPQYQEAVATVIQRANLAYGDFIKSQEGVTFNGQVCLIGDCVGGILAFDALCYSGQPVSESQSSSRRGSVVSMQDADLLSPGTLANAAHCSGGSGGGGSGGSSLESSRHLSRSNIDIPRSNGTEDSRRQLPRKRSDSSTYELDTIQQHQAFLSSLHASVLRNEPSSRRSSSSTMLDGAGALGKFDFEIADLFLFGCPLGLVLALRKTVIPSLDVFQLRPACQQVYNLFHPADPSASRLEPLLERRFHSLPPFSIPRYQRYPLGDGCSTLLADVLQTHNTVFQEHAAPSSPGTAPAGRGFRRASEISIASQVSGMAESYTASSIAQKGPSSLNHTPSIRRLSLLALPPPSPTTQGPRARARQVSPNLERAPCLPDLDIGEVAAKWWGQKRIDYALYCPDALTAFPTVALPHLFHASYWESTDVVSFLLRQVMRHDSSSILELDGKEVSVFTPSQPRERWQRKRTHVKLRNVAANHRINDAVANEDGPQVVTGRFMYGPLDMVTLTGEKVDVHIMTQPPSGEWLHLDTLVTNSSGRVSYTIPETHRLGVGVYPIKMVVRGDHTFADSYITVLPRGTEFVVFSIDGSFAASVSIMGSDPKVRAGAVDVVRHWQDLGYLIIYVTGRPDMQKQRVVAWLAQHNFPHGVVSFCDGLVHDPLRHKANFLKLLISELHLRAHAAYGSTKDVAVYNSISLSPMHIYIVGRPTKKLQQQCQFITDGYAAHLAQLKYNHRARPARNTATRMALRKGSFGLPGQSDFLRSRNHLLRTISAQPSGPSHRHDRTQTQMDSEQRGQRSMSVAASCWGRAMAGRLEPGAATGPK
As for B4, the binding result is reported as “binds”.

B5: TRIM3 (protein, UniProt Q9R1R2 1-744)
chain: MAKREDSPGPEVQPMDKQFLVCSICLDRYRCPKVLPCLHTFCERCLQNYIPPQSLTLSCPVCRQTSILPEQGVSALQNNFFISSLMEAMQQAPEGAHDPEDPHPLSAVAGRPLSCPNHEGKTMEFYCEACETAMCGECRAGEHREHGTVLLRDVVEQHKAALQRQLEAVRGRLPQLSAAIALVGGISQQLQERKAEALAQISAAFEDLEQALQQRKQALVSDLESICGAKQKVLQTQLDTLRQGQEHIGSSCSFAEQALRLGSAPEVLLVRKHMRERLAALAAQAFPERPHENAQLELVLEVDGLRRSVLNLGALLTTSATAHETVATGEGLRQALVGQPASLTVTTKDKDGRLVRTGSAELCAEITGPDGVRLAVPVVDHKNGTYELVYTARTEGDLLLSVLLYGQPVRGSPFRVRALRPGDLPPSPDDVKRRVKSPGGPGSHVRQKAVRRPSSMYSTGGKRKDNPIEDELVFRVGSRGREKGEFTNLQGVSAASSGRIVVADSNNQCIQVFSNEGQFKFRFGVRGRSPGQLQRPTGVAVDTNGDIIVADYDNRWVSIFSPEGKFKTKIGAGRLMGPKGVAVDRNGHIIVVDNKSCCVFTFQPNGKLVGRFGGRGATDRHFAGPHFVAVNNKNEIVVTDFHNHSVKVYSADGEFLFKFGSHGEGNGQFNAPTGVAVDSNGNIIVADWGNSRIQVFDSSGSFLSYINTSAEPLYGPQGLALTSDGHVVVADAGNHCFKAYRYLQ
As for B5, the binding result is “binds”.

B6: YWHAG (protein, UniProt P61982 1-247)
chain: MVDREQLVQKARLAEQAERYDDMAAAMKNVTELNEPLSNEERNLLSVAYKNVVGARRSSWRVISSIEQKTSADGNEKKIEMVRAYREKIEKELEAVCQDVLSLLDNYLIKNCSETQYESKVFYLKMKGDYYRYLAEVATGEKRATVVESSEKAYSEAHEISKEHMQPTHPIRLGLALNYSVFYYEIQNAPEQACHLAKTAFDDAIAELDTLNEDSYKDSTLIMQLLRDNLTLWTSDQQDDDGGEGNN
As for B6, the binding result is “binds”.
